Assay results reported in the supplement of paper PMC6411743.
± gives the standard deviation of the averaged measurements. This is a selection; strong and weak results do not stand in their true shares. Most values lie at the level of the controls, where differences are scatter.

Amino acid sequences for entries named in this document (tags omitted). A change or cut given only in a name is not applied to a line headed by its entry.
UniProt Q9NP61: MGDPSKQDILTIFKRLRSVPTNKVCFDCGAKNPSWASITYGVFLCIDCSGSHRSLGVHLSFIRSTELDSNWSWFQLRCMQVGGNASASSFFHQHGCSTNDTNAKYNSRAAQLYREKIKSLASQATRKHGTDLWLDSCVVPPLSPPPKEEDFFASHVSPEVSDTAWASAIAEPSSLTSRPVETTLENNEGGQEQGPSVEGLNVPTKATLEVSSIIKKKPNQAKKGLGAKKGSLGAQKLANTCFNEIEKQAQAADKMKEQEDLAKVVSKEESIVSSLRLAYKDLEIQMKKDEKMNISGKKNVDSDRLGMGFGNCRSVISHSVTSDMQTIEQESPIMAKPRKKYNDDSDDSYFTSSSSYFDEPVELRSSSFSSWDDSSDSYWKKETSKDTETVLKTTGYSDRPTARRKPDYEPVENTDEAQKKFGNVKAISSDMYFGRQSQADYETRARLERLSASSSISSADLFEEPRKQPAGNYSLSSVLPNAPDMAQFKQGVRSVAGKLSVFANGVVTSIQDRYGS
UniProt P14314: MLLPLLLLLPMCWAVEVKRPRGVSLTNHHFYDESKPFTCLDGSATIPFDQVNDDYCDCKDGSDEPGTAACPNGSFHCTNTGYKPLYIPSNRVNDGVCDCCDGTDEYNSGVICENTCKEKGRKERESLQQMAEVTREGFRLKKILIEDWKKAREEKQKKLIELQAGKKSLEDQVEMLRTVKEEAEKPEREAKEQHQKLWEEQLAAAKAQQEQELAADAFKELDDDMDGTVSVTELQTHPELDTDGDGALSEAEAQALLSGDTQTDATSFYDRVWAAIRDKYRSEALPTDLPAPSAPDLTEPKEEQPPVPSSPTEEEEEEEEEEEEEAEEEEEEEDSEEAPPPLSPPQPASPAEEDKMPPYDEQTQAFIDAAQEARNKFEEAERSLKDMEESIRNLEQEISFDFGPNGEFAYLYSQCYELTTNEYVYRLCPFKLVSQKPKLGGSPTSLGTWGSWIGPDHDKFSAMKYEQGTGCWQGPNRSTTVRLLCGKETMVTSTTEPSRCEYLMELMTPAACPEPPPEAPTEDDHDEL
UniProt Q8N1S5: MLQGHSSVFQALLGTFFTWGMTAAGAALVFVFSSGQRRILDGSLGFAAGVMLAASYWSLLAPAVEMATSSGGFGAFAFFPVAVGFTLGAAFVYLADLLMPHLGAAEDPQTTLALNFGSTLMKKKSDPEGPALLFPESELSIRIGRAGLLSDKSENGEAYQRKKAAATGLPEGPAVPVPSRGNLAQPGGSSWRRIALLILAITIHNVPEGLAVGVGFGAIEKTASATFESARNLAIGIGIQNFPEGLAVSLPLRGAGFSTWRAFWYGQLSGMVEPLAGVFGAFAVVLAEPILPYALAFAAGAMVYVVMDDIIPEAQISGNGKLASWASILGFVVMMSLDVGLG
UniProt O43414: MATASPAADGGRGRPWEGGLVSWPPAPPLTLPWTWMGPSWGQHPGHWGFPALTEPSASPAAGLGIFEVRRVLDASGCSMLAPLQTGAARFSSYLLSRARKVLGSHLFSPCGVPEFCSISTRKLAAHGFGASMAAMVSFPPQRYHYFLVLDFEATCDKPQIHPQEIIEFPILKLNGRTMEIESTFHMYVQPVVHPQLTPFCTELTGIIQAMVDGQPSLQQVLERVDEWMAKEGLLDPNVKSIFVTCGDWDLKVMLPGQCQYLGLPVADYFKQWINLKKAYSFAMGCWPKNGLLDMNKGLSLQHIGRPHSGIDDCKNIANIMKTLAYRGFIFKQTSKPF
UniProt Q12968: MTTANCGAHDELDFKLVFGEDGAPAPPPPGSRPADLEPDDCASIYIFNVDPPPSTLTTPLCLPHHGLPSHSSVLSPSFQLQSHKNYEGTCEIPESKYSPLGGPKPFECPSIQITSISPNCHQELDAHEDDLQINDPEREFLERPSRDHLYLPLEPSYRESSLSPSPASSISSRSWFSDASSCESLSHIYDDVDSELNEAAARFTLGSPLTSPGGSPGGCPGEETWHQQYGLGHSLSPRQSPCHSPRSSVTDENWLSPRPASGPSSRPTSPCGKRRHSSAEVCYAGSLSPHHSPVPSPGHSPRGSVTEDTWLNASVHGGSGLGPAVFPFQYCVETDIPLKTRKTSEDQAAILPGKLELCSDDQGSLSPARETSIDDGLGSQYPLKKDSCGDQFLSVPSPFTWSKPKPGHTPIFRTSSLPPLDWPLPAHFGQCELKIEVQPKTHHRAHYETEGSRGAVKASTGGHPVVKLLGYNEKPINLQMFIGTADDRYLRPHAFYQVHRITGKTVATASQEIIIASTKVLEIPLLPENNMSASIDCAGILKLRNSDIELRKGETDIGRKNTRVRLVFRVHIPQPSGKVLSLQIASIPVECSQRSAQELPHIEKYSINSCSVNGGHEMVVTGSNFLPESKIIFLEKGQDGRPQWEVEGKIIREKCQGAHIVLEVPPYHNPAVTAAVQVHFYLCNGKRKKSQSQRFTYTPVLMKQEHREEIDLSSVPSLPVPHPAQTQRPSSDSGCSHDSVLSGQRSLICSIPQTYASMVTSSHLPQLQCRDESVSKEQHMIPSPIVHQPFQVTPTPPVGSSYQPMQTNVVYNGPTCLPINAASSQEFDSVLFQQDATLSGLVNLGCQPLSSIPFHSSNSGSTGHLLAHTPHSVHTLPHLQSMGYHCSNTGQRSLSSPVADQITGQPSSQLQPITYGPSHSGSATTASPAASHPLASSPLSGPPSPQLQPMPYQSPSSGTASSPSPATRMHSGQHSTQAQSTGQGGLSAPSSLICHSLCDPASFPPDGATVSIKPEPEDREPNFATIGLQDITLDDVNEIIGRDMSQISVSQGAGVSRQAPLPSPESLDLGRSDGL
UniProt Q9Y421: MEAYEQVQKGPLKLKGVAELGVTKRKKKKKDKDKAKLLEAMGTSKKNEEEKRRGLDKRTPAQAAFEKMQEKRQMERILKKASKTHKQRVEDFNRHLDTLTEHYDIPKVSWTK
UniProt Q15653: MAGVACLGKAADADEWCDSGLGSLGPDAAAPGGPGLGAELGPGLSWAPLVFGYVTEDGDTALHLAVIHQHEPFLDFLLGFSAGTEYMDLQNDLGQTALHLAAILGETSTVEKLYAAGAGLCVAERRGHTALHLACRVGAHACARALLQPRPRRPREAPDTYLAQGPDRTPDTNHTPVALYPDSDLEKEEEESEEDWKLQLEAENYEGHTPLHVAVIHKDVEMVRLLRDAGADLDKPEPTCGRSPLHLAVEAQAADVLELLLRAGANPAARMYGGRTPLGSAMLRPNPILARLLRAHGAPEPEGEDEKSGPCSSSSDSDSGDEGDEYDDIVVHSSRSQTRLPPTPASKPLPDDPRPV
UniProt P29017: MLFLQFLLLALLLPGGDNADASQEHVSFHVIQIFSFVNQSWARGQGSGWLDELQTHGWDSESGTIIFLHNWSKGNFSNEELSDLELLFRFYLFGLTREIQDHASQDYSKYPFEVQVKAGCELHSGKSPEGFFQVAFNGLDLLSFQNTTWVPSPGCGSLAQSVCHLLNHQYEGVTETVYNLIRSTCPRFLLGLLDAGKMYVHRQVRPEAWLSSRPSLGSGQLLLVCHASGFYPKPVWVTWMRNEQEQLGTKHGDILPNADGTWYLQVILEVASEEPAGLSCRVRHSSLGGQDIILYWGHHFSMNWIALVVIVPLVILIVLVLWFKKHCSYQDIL
UniProt O95785: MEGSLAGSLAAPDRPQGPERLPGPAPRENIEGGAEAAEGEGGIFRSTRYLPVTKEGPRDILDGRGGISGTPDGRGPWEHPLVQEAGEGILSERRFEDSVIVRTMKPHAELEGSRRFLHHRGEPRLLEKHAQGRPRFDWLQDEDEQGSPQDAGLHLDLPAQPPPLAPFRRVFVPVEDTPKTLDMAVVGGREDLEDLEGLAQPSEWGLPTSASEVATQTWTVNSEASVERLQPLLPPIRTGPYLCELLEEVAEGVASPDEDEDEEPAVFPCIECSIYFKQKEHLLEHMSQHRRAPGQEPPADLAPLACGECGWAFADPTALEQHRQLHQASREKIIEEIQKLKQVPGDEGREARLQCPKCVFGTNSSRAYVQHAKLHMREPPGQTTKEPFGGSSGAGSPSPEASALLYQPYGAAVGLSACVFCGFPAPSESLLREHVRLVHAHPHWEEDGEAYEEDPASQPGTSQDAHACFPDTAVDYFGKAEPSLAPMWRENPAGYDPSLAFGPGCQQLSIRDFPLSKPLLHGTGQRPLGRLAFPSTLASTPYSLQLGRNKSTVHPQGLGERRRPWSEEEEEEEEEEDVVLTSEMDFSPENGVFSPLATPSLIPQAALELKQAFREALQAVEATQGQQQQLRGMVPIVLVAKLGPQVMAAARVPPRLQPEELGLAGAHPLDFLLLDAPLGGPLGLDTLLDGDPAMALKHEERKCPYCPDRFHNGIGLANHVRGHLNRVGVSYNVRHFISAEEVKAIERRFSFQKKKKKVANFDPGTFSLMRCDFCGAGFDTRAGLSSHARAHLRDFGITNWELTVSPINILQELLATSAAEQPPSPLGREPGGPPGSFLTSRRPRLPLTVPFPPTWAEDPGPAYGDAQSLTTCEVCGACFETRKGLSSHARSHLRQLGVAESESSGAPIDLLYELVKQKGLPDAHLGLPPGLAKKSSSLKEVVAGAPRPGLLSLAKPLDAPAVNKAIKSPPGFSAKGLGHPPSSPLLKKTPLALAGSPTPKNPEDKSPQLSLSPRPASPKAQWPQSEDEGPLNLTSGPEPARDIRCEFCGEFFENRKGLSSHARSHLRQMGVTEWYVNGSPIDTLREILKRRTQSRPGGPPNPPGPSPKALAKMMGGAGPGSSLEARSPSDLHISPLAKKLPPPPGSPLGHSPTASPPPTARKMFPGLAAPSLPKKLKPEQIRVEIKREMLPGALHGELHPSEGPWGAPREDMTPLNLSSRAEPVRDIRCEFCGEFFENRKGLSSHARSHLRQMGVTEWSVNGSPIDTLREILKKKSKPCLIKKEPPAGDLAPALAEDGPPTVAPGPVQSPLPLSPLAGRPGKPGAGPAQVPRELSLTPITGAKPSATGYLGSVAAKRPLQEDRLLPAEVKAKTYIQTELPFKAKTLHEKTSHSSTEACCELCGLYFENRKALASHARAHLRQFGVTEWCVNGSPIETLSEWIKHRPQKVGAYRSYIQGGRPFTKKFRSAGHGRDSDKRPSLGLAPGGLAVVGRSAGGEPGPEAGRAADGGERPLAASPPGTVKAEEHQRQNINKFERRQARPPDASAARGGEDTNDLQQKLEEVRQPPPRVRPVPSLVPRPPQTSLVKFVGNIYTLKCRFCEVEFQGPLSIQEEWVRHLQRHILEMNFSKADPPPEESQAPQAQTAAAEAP

Compound: Nc1ncnc2c1ncn2[C@@H]1O[C@H](COP(=O)(O)OP(=O)(O)OP(=O)(O)O)[C@@H](O)[C@H]1O [adenosine triphosphate]
Experiment: NP40-soluble protein abundance relative to vehicle (solubility fold change) (ratio); higher = more soluble protein in presence of ATP
Outline: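 Eight concentrations, 0.1 to 10 mM, were tested on Jurkat crude lysate for 10 min at room temperature and then 3 min at 37 °C, in three independent experiments. The lysate was solubilised with 0.8% NP40 and benzonase, ultracentrifuged, and the supernatant TMT-labelled for LC-MS/MS. Each value is the fold change against the detergent-processed vehicle in its own replicate, from vsn-normalised intensities.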

H0Y6A0 and related entries (UniProt Q9NP61)
NP40-soluble protein abundance (concentration: 0.1mM): 0.988 ± 0.033
NP40-soluble protein abundance (concentration: 0.5mM): 0.986 ± 0.031

K7ELL7 and related entries (UniProt P14314)
NP40-soluble protein abundance (concentration: 0.1mM): 0.974 ± 0.026
NP40-soluble protein abundance (concentration: 0.5mM): 0.97 ± 0.053

J3QLB2 and related entries (UniProt Q8N1S5)
NP40-soluble protein abundance (concentration: 0.1mM): 0.966 ± 0.067
NP40-soluble protein abundance (concentration: 0.5mM): 0.991 ± 0.026

H0Y4B0 and related entries (UniProt O43414)
NP40-soluble protein abundance (concentration: 0.1mM): 1.09 ± 0.086
NP40-soluble protein abundance (concentration: 0.5mM): 1.04 ± 0.05

I3L3K7 and related entries (UniProt Q12968)
NP40-soluble protein abundance (concentration: 0.1mM): 1.06 ± 0.018
NP40-soluble protein abundance (concentration: 0.5mM): 1.08 ± 0.024

K7EIY1 and related entries (UniProt Q9Y421)
NP40-soluble protein abundance (concentration: 0.1mM): 0.793 ± 0.084
NP40-soluble protein abundance (concentration: 0.5mM): 0.741 ± 0.12

G5E9C2 and related entries (UniProt Q15653)
NP40-soluble protein abundance (concentration: 0.1mM): 0.9994 ± 0.0038
NP40-soluble protein abundance (concentration: 0.5mM): 0.998 ± 0.02

H0Y6Y6 and related entries (UniProt P29017)
NP40-soluble protein abundance (concentration: 0.1mM): 0.941 ± 0.032
NP40-soluble protein abundance (concentration: 0.5mM): 0.913 ± 0.066

M0QXA7 and related entries (UniProt O95785)
NP40-soluble protein abundance (concentration: 0.1mM): 0.975 ± 0.028
NP40-soluble protein abundance (concentration: 0.5mM): 0.973 ± 0.072
